{
  "source": "paper PMC4536990",
  "about": "(Oncotarget, 2015)",
  "assay": "peptide made by a vendor (Fmoc solid-phase peptide synthesis)",
  "details": "whole synthesis",
  "note": "Plain letter strings leave the end groups untold.",
  "data": [
    {"sequence": "FIHHIIGGLFSAGKAIHRLIRRRRR", "values": [
      {"measurement": "final HPLC purity", "value": ">95", "unit": "%"}
    ]}
  ]
}
